# Test results as given in PubChem BioAssay AID540275 (National Center for Advancing Translational Sciences (NCATS), 2011).
# By UniProt entry, the sequences of proteins in these tests, tags left out.
# UniProt Q8NER1, whole entry, looked up: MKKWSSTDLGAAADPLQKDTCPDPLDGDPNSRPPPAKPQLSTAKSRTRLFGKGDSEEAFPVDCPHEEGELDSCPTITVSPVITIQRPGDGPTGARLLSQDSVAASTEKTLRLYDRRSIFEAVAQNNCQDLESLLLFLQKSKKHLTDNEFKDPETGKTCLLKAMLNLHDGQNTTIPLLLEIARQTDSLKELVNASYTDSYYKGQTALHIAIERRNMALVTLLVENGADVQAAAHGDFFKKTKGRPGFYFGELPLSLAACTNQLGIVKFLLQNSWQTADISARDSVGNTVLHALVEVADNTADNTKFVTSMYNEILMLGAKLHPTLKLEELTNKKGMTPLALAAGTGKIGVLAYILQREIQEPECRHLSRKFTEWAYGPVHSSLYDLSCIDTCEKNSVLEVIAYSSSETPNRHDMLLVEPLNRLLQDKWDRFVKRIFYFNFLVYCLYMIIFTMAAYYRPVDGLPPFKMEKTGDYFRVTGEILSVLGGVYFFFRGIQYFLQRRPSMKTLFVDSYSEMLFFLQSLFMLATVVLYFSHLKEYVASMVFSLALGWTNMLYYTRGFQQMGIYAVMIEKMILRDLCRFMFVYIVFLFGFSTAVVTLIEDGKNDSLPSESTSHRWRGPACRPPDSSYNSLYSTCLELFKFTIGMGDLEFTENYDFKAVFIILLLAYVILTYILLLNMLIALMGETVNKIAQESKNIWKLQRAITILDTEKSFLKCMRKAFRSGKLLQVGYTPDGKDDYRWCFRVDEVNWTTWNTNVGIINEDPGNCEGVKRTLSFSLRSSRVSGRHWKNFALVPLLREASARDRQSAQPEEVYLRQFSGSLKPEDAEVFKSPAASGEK
# Out of some 320,000 compounds screened, about 620 (0.19%) were called active. The inconclusive results got no clear call from the source; some entries with a clear call stand among them for comparison. No stated cut-off is given here; in the data, active means activation above about 80%; inconclusive means between about 30% and that limit; inactive means weaker than that.
# Molecular target: Transient receptor potential cation channel subfamily V member 1 (Homo sapiens) (UniProt Q8NER1)
# Assay: HTS Assay for Compounds that Act as Agonists of the Vanilloid Receptor 1; further: 0% is about no effect
# Settings: TRPV1-expressing cells, Fluo-8 calcium influx, agonist mode; at 8.33 µM, stronger effect = higher value
# Summary of the method: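 Cells expressing TRPV1 were dye-loaded with Fluo-8 and read kinetically: 10 s baseline, 3 min after compound (agonist portion), then 2 min after EC20 capsaicin (allosteric enhancer portion). Calcium-bound dye fluorescence at 480/520 nm.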
row,Compound,activation
1,CC(C)(C)c1ccc(C(=O)Nc2cccc([N+](=O)[O-])c2)cc1,active: 84.5%
2,Cc1cc(C(=O)Nc2cccc(O)c2)co1,inconclusive: 31.4%
3,COc1ccc(C(=O)Nc2ccccc2C(=O)Nc2ccncc2)cc1,inconclusive: 41%
4,CC1CC(C)CN(C(=O)c2cccc(S(=O)(=O)N(C)c3ccccc3)c2)C1 (stereo not drawn),inconclusive: 50.2%
5,O=C(NCc1ccccc1Cl)C1CCN(S(=O)(=O)c2ccc(F)cc2)CC1,inconclusive: 46.9%
6,Fc1cc(Br)ccc1NC(=S)Nc1ccccc1,inactive: -1.66%
7,COC(=O)c1ccc(N2CCCCC2)c(N)c1,inconclusive: 42.2%
8,CC(C)c1ccc(NC(=O)N2CCc3ccccc3C2)cc1,inconclusive: 63%
9,COc1ccc(C2=CC(c3cccc(C)c3)n3nnnc3N2)cc1 (stereo not drawn),inactive: -1.29%
10,CC(C)(C)c1ccc(-c2cc(C(=O)NNC(=O)Nc3ccccc3)c3ccccc3n2)cc1,inconclusive: 35.9%
11,O=C(Cc1ccc(F)cc1)Nc1ccc(S(=O)(=O)N2CCCCC2)cc1,inconclusive: 54.9%
12,O=C(NCc1cccc(Br)c1)C1CC(c2ccccc2C(F)(F)F)=NO1 (stereo not drawn),inactive: 0.855%
13,COc1ccc(C)cc1Nc1nc(C)nc2sc(C)cc12,inconclusive: 43.5%
14,CCOC(=O)NC(=S)Nc1ccc(C(C)(C)C)cc1,inconclusive: 49%
15,O=C(NC(=S)Nc1cccc([N+](=O)[O-])c1)C1CCCC1,inconclusive: 34.1%
16,CCc1nn(C(C)C(=O)NC2CCCCCC2)c(=O)c2cc3occc3n12 (stereo not drawn),inactive: 2.58%
17,COc1ccccc1-c1nn2c(C(F)(F)F)nnc2s1,inconclusive: 30.6%
18,C/C(=N\NC(=O)c1ccccc1C)c1ccc(NC(=O)c2cccs2)cc1,inconclusive: 33.9%
19,O=C(/C=C/c1ccco1)Nc1ccc(N2CCCC2)cc1,inconclusive: 69.8%
20,O=C(Nc1nc2ccc(S(=O)(=O)N3CCCCC3)cc2s1)c1ccncc1,inactive: 1%
21,COc1ccccc1OCC(=O)Nc1nc(C)c(C)s1,inactive: 2.5%
22,O=C(Nc1ccc2c(c1)OCO2)c1cccc(F)c1,inconclusive: 50.7%
23,O=C(c1cccs1)N1N=C(c2ccccc2)CC1c1ccccc1 (stereo not drawn),inconclusive: 41.6%
24,CN(C)c1ccc(/C=N/NC(=O)c2ccccc2Cl)cc1,inconclusive: 36.1%

# Gathered by group: those above with a furan ring, fused or not (three)
row,Compound,activation
2,Cc1cc(C(=O)Nc2cccc(O)c2)co1,inconclusive: 31.4%
16,CCc1nn(C(C)C(=O)NC2CCCCCC2)c(=O)c2cc3occc3n12 (stereo not drawn),inactive: 2.58%
19,O=C(/C=C/c1ccco1)Nc1ccc(N2CCCC2)cc1,inconclusive: 69.8%

# Next part

row,Compound,activation
1,O=C(c1ccc(F)cc1)N1CCCC(c2nc(-c3cccs3)no2)C1 (stereo not drawn),inconclusive: 31.2%
2,COc1ccc(-c2n[nH]c(=S)n2-c2ccc(Br)cc2)cc1OC,inactive: 0.713%
3,Cc1snc(SCC(=O)c2ccc(Cl)cc2)c1C#N,inconclusive: 40.5%
4,CCSc1nsc(NC(=O)Nc2ccccc2F)n1,inconclusive: 39.2%
5,CC(NC(=O)c1ccc(Br)s1)c1ccncc1 (stereo not drawn),inconclusive: 31.4%
6,O=[N+]([O-])c1ccc(CSc2nnc3ccccn23)cc1,inactive: 4.02%
7,Clc1ccccc1C(c1ccccc1)(c1ccccc1)n1ccnc1,inconclusive: 34.8%
8,Cc1cccc(Nc2nnc(-c3ccc(N4CCOCC4)c([N+](=O)[O-])c3)c3ccccc23)c1,inactive: 16.5%
9,Cc1cc(C)n2ncc(C(=O)NCCc3ccccc3)c2n1,inactive: -0.808%
10,Cc1oc(-c2ccccc2)cc1C(=O)Nc1ccccc1,inconclusive: 78.5%
11,CC(=O)c1ccc(NC(=O)c2cnn3ccccc23)cc1,inconclusive: 44.6%
12,Cc1c(O)c(CN2CCCC2)cc2c3c(c(=O)oc12)CCC3,inactive: 8.32%
13,CCCCN(c1nc2ccccc2nc1Cl)S(=O)(=O)c1ccc(C)cc1,inactive: -5.49%
14,O=C(NCCOc1ccc(F)cc1)c1ccccc1SCc1ccccc1,inconclusive: 42%
15,Cc1nnc(SCc2ccccc2F)n1NCc1cccs1,inconclusive: 74%
16,COC(=O)C1=C(C)NC2=C(C(=O)CC(C)(C)C2)C1c1cn(Cc2ccc(Br)cc2)nc1-c1ccccc1 (stereo not drawn),inactive: 0.8%
17,Fc1ccc(/C=N\Nc2cccc(F)c2)cc1,inactive: 0.568%
18,Cc1ccc(NC(=O)C2CCCN(c3ncccn3)C2)cc1F (stereo not drawn),inconclusive: 53.7%
19,O=C(Nc1ccncc1)Nc1ccc(F)cc1,inconclusive: 66.9%
20,Cc1ccc(NC(=O)CN(C)Cc2ccc(Cl)cc2)cc1,inconclusive: 31.7%
21,Cc1cc(NC(=O)c2ccccc2F)n(-c2nc3ccccc3[nH]2)n1,inconclusive: 44.2%
22,CCc1ccc(CCC(=O)Nc2ccc(Cl)cc2)o1,inconclusive: 73.6%
23,COCCNC(=O)c1ccccc1NC(=O)c1cc(OC)cc(OC)c1,inconclusive: 37.1%
24,O=C(CCSc1ccc(Cl)cc1)N1CCN(S(=O)(=O)c2ccccc2)CC1,inconclusive: 36.9%

row,Compound,activation
1,CCOC(=O)c1ccc(Nc2nc(-c3cccnc3)nc3ccccc23)cc1,inconclusive: 44%
2,O=C(Nc1ccccc1N1CCOCC1)c1ccc2c(c1)C(=O)N(Cc1ccncc1)C2=O,inconclusive: 57.2%
3,CN(Cc1cccs1)C(=O)CN1CCN(S(=O)(=O)c2ccc3c(c2)OCCCO3)CC1,inactive: 12.4%
4,Cc1ccc2c(Cl)cc(Cl)c(OCC(=O)NCCc3ccccn3)c2n1,inconclusive: 38.2%
5,Cc1cccc(C)c1OCCOC(=O)c1cccc(S(=O)(=O)N2CCOCC2)c1,inconclusive: 31%
6,CN(C)CCCN1C(=O)c2cccc3c(Br)ccc(c23)C1=O,inactive: 2.42%
7,O=C(Cc1ccccc1)Nc1ccc(N2CCCCC2)cc1,inconclusive: 48.6%
8,CCO[C@H]1OC(C(=O)N2CCN(Cc3ccc4c(c3)OCO4)CC2)=C[C@@H](c2ccc3c(c2)OCO3)[C@@H]1CCCO,inconclusive: 38.9%
9,CCC1CCC(NC(=O)Nc2cccc(OC)c2)CC1 (stereo not drawn),inconclusive: 60.8%
10,CCOc1ccccc1NC(=O)C(c1ccccc1)N1CCN(C(=O)c2ccco2)CC1 (stereo not drawn),inconclusive: 35.8%
11,O=C(c1ccc(C(F)(F)F)cc1)C1CCCN(C(=O)CCc2ccncc2)C1 (stereo not drawn),active: 87.4%
12,S=C(NCCc1ccccc1)NCc1ccccc1Cl,inconclusive: 64.8%
13,O=C(Nc1ccc(N2CCCCC2)cc1)c1cncc(Br)c1,inconclusive: 58%
14,O=C(CSc1nnc(-c2ccccc2)n1Cc1ccccc1)N1CCOCC1,inconclusive: 52.2%
15,O=C(CCN1CCN(c2ccccc2F)CC1)Nc1ccc(F)cc1,inconclusive: 41.5%
16,CCCNc1nc(Nc2ccc(C)c(Cl)c2)c2cnn(C)c2n1,inconclusive: 54.6%
17,Cc1cc(OCC(=O)Nc2ccncc2)ccc1Br,inconclusive: 75.4%
18,Cc1ccccc1NC(=O)NC1CCCCCCC1,inconclusive: 38.2%
19,CNC(=O)c1cc2c(=O)n3cc(C)ccc3nc2n(Cc2ccco2)c1=N,inactive: -0.322%
20,Cc1ccc(N(C)S(=O)(=O)c2cccc(C(=O)Nc3ccc(C)cn3)c2)cc1,inconclusive: 69.4%
21,COc1cc(C=C(c2nc3ccccc3s2)c2nc3ccccc3s2)ccc1O,inactive: 2.3%
22,O=C(N/N=C/c1cc(Br)cs1)c1ccccc1[N+](=O)[O-],inactive: 0.3%
23,COc1cc(C(=O)NCc2ccc(F)cc2)cc(Cl)c1OC,inconclusive: 45.9%
24,Clc1ccc2nc(SCc3nnc(-c4ccccc4)o3)[nH]c2c1,inconclusive: 38.2%

row,Compound,activation
1,CCCCCn1c(CNC(=O)c2cccs2)nc2ccccc21,inconclusive: 36.2%
2,CCOc1ccc(NC(=O)Nc2ccc(NC(C)=O)cc2)cc1,inconclusive: 56.5%
3,S=C(NCCCCc1ccccc1)NCc1ccccc1,inconclusive: 57.5%
4,O=C(NCCCCc1ccccc1)Nc1ccc(F)cc1F,inconclusive: 52%
5,CCn1c(=O)c(CCC(=O)NCC2CCCO2)c(C)c2c(C)nn(-c3ccc(C)cc3)c21 (stereo not drawn),inconclusive: 74.6%
6,CCOC(=O)c1c(NC(=O)CN(CC)CC)sc2c1CCN(C(=O)OCC)C2,inconclusive: 41.1%
7,COc1ccc(CN(C(=O)CCC(=O)N2CCCCC2)c2nccs2)cc1OC,inconclusive: 62%
8,CCc1ccc(NC(=O)N2CCc3ccccc3C2)cc1,inconclusive: 61.7%
9,COC(=O)C/C=C/[C@@H](C)[C@@H](/C=N/OC[C@@H](C)[C@H](OCc1ccccc1)C(C)C)NS(=O)(=O)c1ccc(C)cc1,inconclusive: 52.9%
10,CC(C)(C)c1ccc(C(=O)NC(=S)NCc2cccnc2)cc1,inconclusive: 49.7%
11,CC(=O)Nc1ccc(N(CC(=O)NC2CCCC2)C(=O)CCC(=O)Nc2cc(C)on2)cc1,inactive: 2.56%
12,Nc1nn(-c2ccccc2)c(N)c1N=Nc1cccc(F)c1,inconclusive: 58.5%
13,Cc1ccc(NC(=O)c2cccs2)cc1,inconclusive: 51.2%
14,COc1ccccc1N(C)S(=O)(=O)c1ccc(C(=O)NCC2CCCCC2)cc1,inconclusive: 30.9%
15,Cc1cc(C)c2nc(SC(C)C#N)cc(C)c2c1 (stereo not drawn),inconclusive: 32.7%
16,C/C(=N/NC(=O)c1cccs1)c1ccc(N2CCOCC2)cc1,inactive: 3.03%
17,O=C(CCCN1C(=O)C(c2ccccc2)Oc2cccnc21)NCc1ccccc1F (stereo not drawn),inconclusive: 38%
18,O=C(CCCc1cccs1)Nc1nc(-c2ccc(F)cc2)cs1,inconclusive: 32.4%
19,Cc1ccc(NC2=C/C(=N/S(=O)(=O)c3cccs3)c3ccccc3C2=O)cc1,inconclusive: 46.1%
20,Cc1cc(C)cc(NC(=O)C(OC(=O)c2ccc(O)cc2)c2ccccc2)c1 (stereo not drawn),inconclusive: 37.6%
21,CCOc1ccc(CNC(=O)CCSCc2ccccc2F)cc1OC,active: 104%

# Structures shown so far with a cyano group (2):
row,Compound,activation
3,Cc1snc(SCC(=O)c2ccc(Cl)cc2)c1C#N,inconclusive: 40.5%
15,Cc1cc(C)c2nc(SC(C)C#N)cc(C)c2c1 (stereo not drawn),inconclusive: 32.7%
